No dose or concentration is given here for some results.
System: Clostridium butyricum M-II588
Type: cell-based
Settings: 1 w/v% carbohydrate, butyric acid bacterium culture, anaerobic, 37°C; mean ± standard error of three samples

Compound	pH After culture for 20 hours
OC[C@H]1O[C@@H](O[C@H]2[C@H](O)[C@@H](O)[C@@H](O[C@]3(CO)O[C@H](CO)[C@@H](O)[C@@H]3O)O[C@@H]2CO)[C@H](O)[C@@H](O)[C@H]1O [LS, Lactosucrose, reference compound]	6.3±0.1
α-cyclodextrin [α-CD]	4.7±0.0

Reference: patent EP4285989A1 (priority 2021, dated 2022)
